Reference: the supplement of paper PMC5836539
± gives the standard deviation of the averaged measurements. Repeats in this data set agree poorly, so a single value says little.

Sequences of proteins named here, by UniProt entry; tags and fusion partners are left off. A change or cut given only in a name is not applied to a line headed by its entry.
UniProt Q9H4Z3: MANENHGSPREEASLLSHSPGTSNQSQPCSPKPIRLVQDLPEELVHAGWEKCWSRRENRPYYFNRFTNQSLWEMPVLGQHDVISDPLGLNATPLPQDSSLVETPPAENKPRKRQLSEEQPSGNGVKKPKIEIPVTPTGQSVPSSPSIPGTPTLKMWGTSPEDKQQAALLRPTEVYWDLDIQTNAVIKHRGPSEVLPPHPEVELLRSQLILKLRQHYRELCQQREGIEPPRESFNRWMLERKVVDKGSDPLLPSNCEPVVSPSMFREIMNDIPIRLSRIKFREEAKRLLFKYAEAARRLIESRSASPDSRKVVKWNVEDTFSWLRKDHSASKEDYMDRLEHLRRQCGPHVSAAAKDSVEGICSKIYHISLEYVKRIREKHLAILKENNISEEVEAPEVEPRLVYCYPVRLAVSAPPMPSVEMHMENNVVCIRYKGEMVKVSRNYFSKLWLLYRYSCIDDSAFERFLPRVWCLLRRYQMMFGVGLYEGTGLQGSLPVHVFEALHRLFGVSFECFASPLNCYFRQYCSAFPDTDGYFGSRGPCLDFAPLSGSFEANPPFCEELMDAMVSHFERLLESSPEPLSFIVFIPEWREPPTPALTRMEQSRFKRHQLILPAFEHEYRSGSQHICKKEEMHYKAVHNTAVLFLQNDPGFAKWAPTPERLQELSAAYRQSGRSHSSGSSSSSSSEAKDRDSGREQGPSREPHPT
UniProt Q9HAN9, whole entry: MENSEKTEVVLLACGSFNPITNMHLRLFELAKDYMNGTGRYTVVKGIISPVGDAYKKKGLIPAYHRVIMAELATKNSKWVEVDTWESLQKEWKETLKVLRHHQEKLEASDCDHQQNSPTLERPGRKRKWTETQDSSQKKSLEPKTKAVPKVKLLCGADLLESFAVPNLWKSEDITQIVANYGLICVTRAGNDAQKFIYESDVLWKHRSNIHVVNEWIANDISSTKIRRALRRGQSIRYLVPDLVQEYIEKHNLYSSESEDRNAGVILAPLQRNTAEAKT
UniProt Q07955, whole entry, looked up: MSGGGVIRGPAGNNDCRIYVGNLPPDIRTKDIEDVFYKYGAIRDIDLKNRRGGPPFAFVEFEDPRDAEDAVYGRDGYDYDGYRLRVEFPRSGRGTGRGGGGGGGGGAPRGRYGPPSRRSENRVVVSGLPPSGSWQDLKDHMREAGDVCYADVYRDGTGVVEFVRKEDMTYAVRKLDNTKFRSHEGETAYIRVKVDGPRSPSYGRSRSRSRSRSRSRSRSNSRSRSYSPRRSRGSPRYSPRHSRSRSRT
UniProt Q13409, whole entry, looked up: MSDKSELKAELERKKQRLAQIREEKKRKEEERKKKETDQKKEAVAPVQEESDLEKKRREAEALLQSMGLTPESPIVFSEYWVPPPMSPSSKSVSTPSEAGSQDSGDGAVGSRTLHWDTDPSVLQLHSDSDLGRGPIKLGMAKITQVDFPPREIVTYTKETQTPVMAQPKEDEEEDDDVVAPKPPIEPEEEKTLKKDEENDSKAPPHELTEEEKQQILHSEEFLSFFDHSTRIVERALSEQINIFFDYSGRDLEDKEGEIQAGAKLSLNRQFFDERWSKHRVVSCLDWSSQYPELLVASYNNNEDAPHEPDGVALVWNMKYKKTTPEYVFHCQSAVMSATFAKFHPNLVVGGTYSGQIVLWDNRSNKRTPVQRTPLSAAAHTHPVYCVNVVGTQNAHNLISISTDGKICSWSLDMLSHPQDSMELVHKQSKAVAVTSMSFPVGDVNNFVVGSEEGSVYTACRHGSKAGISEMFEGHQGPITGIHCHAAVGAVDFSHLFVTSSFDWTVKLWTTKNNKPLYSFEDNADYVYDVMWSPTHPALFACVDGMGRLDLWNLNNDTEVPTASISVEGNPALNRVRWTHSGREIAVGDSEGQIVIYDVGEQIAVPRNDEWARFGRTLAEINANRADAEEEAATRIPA
UniProt P49792, whole entry, looked up: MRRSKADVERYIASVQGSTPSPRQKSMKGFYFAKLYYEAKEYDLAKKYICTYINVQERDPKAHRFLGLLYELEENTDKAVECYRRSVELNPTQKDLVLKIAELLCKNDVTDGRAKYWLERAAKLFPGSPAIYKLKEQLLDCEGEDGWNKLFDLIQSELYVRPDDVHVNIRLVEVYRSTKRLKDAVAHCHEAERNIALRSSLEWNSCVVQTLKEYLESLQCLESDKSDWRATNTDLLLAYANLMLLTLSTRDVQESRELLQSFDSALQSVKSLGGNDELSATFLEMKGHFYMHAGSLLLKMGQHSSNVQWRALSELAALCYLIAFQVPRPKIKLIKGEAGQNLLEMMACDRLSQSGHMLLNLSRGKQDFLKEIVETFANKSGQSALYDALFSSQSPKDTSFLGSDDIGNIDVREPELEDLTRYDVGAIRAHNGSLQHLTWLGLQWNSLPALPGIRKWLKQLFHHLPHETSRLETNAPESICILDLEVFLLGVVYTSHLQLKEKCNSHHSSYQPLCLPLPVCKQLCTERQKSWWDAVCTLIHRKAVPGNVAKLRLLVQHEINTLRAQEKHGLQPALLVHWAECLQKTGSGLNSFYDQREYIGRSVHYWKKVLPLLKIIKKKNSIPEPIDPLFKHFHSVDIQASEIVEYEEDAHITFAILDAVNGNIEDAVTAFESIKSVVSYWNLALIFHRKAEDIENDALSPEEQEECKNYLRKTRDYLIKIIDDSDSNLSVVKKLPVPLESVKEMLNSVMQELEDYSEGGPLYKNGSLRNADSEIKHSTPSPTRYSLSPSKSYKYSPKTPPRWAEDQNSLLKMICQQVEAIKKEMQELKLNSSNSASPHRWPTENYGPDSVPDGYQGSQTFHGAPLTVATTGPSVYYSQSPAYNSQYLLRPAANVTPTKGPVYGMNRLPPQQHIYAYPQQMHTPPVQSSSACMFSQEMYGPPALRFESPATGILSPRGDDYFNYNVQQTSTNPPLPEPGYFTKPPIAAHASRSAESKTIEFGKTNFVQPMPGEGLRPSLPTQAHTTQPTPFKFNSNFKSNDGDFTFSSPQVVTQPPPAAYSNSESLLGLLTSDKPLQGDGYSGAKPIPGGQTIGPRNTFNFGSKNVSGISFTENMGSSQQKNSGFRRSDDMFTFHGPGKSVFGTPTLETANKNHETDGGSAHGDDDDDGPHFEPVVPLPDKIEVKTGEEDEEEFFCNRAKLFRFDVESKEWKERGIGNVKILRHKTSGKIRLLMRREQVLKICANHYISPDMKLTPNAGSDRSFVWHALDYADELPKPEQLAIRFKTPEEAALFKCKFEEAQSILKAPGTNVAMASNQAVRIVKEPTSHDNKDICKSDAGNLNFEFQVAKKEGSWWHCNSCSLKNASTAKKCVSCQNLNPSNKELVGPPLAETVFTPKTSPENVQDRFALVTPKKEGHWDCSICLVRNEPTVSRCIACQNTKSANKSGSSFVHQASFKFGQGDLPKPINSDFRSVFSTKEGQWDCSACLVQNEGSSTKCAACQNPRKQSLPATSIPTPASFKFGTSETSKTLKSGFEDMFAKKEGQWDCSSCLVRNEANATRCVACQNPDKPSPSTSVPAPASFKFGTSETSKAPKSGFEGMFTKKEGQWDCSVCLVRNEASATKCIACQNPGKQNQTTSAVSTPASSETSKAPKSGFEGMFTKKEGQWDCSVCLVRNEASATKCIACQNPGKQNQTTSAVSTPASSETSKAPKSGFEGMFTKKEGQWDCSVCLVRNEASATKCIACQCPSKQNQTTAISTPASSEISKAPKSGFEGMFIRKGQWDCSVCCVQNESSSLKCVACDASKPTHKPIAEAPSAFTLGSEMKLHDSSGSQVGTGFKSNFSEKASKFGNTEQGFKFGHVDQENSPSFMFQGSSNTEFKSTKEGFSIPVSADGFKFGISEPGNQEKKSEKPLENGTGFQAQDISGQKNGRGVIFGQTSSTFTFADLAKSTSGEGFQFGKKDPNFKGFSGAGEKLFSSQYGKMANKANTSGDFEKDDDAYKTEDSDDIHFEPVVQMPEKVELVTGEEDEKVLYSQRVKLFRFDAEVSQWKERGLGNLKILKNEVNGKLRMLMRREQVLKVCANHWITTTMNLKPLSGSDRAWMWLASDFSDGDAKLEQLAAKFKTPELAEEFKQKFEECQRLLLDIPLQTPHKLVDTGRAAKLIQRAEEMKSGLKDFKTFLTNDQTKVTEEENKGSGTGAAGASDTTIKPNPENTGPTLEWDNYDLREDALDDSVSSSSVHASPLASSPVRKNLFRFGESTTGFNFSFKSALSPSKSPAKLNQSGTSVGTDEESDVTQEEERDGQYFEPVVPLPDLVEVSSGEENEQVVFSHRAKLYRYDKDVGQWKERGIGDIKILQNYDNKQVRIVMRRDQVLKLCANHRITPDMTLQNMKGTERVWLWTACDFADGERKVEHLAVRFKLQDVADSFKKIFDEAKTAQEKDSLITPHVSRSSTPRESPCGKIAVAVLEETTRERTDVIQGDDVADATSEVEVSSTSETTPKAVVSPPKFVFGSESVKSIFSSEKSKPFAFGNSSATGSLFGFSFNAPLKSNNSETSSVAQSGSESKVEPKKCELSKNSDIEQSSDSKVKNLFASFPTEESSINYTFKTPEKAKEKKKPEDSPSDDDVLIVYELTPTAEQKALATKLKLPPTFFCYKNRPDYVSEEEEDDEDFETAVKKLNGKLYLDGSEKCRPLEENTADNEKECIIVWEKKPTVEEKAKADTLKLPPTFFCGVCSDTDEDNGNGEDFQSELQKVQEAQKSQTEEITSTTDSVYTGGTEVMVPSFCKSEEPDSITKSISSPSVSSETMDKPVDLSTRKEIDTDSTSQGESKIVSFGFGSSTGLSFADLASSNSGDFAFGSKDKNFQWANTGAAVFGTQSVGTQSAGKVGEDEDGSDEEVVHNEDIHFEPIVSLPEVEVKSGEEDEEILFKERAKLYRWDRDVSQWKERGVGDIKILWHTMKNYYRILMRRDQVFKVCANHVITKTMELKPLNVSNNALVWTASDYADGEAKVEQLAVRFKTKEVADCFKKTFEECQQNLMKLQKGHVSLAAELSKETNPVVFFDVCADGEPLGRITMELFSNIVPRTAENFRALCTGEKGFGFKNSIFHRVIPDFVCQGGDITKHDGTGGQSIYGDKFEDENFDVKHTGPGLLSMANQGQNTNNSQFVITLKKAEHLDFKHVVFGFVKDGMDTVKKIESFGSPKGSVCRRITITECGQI
UniProt P49790, whole entry, looked up: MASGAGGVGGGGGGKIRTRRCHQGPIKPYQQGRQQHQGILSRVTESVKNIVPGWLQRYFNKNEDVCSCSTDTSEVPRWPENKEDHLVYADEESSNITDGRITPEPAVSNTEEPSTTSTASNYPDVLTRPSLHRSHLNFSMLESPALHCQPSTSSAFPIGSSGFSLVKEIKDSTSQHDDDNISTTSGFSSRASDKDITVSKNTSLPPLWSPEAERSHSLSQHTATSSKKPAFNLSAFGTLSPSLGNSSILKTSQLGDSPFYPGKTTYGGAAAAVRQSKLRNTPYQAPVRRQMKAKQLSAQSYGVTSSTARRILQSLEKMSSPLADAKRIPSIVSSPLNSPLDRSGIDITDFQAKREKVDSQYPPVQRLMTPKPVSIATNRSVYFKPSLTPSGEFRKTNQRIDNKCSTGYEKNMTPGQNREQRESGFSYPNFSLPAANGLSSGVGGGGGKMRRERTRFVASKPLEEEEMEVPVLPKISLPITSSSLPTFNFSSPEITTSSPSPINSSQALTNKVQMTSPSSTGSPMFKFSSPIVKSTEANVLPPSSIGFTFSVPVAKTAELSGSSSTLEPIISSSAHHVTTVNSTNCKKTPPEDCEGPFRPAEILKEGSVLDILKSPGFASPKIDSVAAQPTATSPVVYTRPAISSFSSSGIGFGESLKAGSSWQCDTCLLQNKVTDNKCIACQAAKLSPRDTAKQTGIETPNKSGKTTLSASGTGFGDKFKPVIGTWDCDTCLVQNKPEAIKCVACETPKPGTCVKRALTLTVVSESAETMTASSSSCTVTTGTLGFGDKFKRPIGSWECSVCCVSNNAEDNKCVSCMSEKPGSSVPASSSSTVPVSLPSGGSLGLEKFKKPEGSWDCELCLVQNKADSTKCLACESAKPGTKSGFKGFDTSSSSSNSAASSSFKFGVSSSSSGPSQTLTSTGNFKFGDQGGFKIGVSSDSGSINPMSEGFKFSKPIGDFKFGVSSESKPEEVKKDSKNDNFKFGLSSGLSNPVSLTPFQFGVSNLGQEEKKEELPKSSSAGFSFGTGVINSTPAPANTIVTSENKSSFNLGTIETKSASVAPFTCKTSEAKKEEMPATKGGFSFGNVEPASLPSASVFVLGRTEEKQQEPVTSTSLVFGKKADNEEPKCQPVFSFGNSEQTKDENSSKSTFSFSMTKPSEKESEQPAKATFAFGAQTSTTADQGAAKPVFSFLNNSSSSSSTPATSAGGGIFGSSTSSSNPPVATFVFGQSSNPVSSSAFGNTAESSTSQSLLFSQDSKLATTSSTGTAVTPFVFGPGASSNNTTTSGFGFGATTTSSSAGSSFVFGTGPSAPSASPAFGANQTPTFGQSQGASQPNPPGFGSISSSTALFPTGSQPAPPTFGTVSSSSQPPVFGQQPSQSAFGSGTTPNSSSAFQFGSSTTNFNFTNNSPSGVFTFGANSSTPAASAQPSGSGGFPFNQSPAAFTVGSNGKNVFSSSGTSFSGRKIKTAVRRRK

compound: CC[C@@H](C)Nc1cc(C(=O)N[C@H]2C[C@H]3CC[C@@H](C2)N3c2ccc(C(=O)C3CC3)cn2)c(C)cc1C(N)=O [XL888]; assay: phosphopeptide melting temperature shift (XL888 minus DMSO); higher = stabilised by drug treatment; details: 100 µM; treatment time 2 h; layout: intact cells; SK-Mel 28
Experimental: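 Phospho-TPP in intact SK-Mel 28 cells treated with 100 uM XL888 or DMSO for 2 h, heated at 10 temperatures (37-67 C) for 3 min, soluble fraction TMT10plex-labelled and TiO2 phospho-enriched. Melting curves were fitted per phosphopeptide; the value is the melting point difference (drug minus vehicle) in each of two biological replicates.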

Row | Target | phosphopeptide melting temperature shift [°C]
1 | RBM25 phosphosite_677 (phosphosite position: 677) (UniProt P49756) | 1.34
2 | UniProt Q9UGI8-2_phosphosite_159 (phosphosite position: 159) | 1.3 ± 0.015
3 | PCIF1 phosphosite_19 (phosphosite position: 19) (UniProt Q9H4Z3) | 0.355
4 | TNKS1BP1 phosphosite_1545 (phosphosite position: 1545) (UniProt Q9C0C2) | -5.86
5 | UniProt Q5T0N5-3_phosphosite_430 (phosphosite position: 430) | -0.663
6 | UniProt O94929-2_phosphosite_311 (phosphosite position: 311) | 2.99 ± 2
7 | UniProt Q9H6R7_phosphosite_468 (phosphosite position: 468) | -1.1
8 | PIK3CD phosphosite_1039 (phosphosite position: 1039) (UniProt O00329) | -0.422
9 | UniProt P78559_phosphosite_527 (phosphosite position: 527) | -0.116 ± 0.22
10 | NMNAT1 phosphosite_117 (phosphosite position: 117) (UniProt Q9HAN9) | -1.04 ± 0.85
11 | UniProt Q6VMQ6-2_phosphosite_556 (phosphosite position: 556) | 1.12
12 | UniProt Q07955_phosphosite_238 (phosphosite position: 238) | -4.13
13 | IWS1 phosphosite_720 (phosphosite position: 720) (UniProt Q96ST2) | 0.976
14 | CEP170 phosphosite_933 (phosphosite position: 933) (UniProt Q5SW79) | -1.71
15 | UniProt Q96P16-3_phosphosite_120 (phosphosite position: 120) | 3.95
16 | CROCC phosphosite_512 (phosphosite position: 512) (UniProt Q5TZA2) | -1.15 ± 1.2
17 | BCL9 phosphosite_104 (phosphosite position: 104) (UniProt O00512) | 1.68
18 | NOP58 phosphosite_502 (phosphosite position: 502) (UniProt Q9Y2X3) | -3.27
19 | EEF1D phosphosite_147 (phosphosite position: 147) (UniProt P29692) | 1.13
20 | UniProt Q13247_phosphosite_314 (phosphosite position: 314) | 1.08 ± 2.4
21 | UniProt Q92974-3_phosphosite_617 (phosphosite position: 617) | 1.3
22 | UniProt Q13409-3_phosphosite_81 (phosphosite position: 81) | 2.01 ± 1.1
23 | ETV3 phosphosite_159 (phosphosite position: 159) (UniProt P41162) | 0.124
24 | MCM3 phosphosite_711 (phosphosite position: 711) (UniProt P25205) | -0.826 ± 1.2
25 | UniProt Q9NVN3-4_phosphosite_233 (phosphosite position: 233) | 0.72

Row | Target | phosphopeptide melting temperature shift [°C]
26 | RAB11FIP5 phosphosite_538 (phosphosite position: 538) (UniProt Q9BXF6) | 0.834
27 | UniProt P51948-2_phosphosite_237 (phosphosite position: 237) | 2.02
28 | MAP1B phosphosite_1779 (phosphosite position: 1779) (UniProt P46821) | 2.22 ± 1.4
29 | N4BP1 phosphosite_288 (phosphosite position: 288) (UniProt O75113) | 2.23
30 | YBX1 phosphosite_165 (phosphosite position: 165) (UniProt P67809) | 0.0955 ± 0.23
31 | SRRM2 phosphosite_970 (phosphosite position: 970) (UniProt Q9UQ35) | 2.9 ± 3.1
32 | RBM12 phosphosite_424 (phosphosite position: 424) (UniProt Q9NTZ6) | 0.651 ± 0.3
33 | UniProt Q6PD74-2_phosphosite_202 (phosphosite position: 202) | 0.435 ± 2.5
34 | UniProt Q9UQC2-2_phosphosite_367 (phosphosite position: 367) | -0.637 ± 0.73
35 | BICD2 phosphosite_568 (phosphosite position: 568) (UniProt Q8TD16) | 0.759 ± 0.84
36 | UniProt P18583-2_phosphosite_1810 (phosphosite position: 1810) | 6.79
37 | SPAG9 phosphosite_109 (phosphosite position: 109) (UniProt O60271) | 0.591 ± 0.6
38 | UniProt Q6UUV9-3_phosphosite_64 (phosphosite position: 64) | -0.29
39 | UniProt Q9Y2D5-5_phosphosite_809 (phosphosite position: 809) | 2.36 ± 0.043
40 | SRRM1 phosphosite_715 (phosphosite position: 715) (UniProt Q8IYB3) | -3.02
41 | UniProt Q5VT52-2_phosphosite_556 (phosphosite position: 556) | 1.58
42 | UniProt O75717-2_phosphosite_745 (phosphosite position: 745) | 0.684
43 | UniProt Q13136-2_phosphosite_242 (phosphosite position: 242) | 2.2
44 | RANBP2 phosphosite_2900 (phosphosite position: 2900) (UniProt P49792) | 1.82 ± 0.95
45 | UniProt Q8TDZ2-2_phosphosite_786 (phosphosite position: 786) | 1.14 ± 0.91
46 | FAM122B phosphosite_115 (phosphosite position: 115) (UniProt Q7Z309) | 0.313 ± 2.1
47 | PACSIN2 phosphosite_372 (phosphosite position: 372) (UniProt Q9UNF0) | 1.87 ± 0.31
48 | UniProt Q9BW85_phosphosite_213 (phosphosite position: 213) | 0.899 ± 0.23
49 | UniProt P49790-2_phosphosite_338 (phosphosite position: 338) | 0.0278
50 | TRIM56 phosphosite_475 (phosphosite position: 475) (UniProt Q9BRZ2) | 0.566

In a second layout: results already given.
UniProt Q8TDZ2-2_phosphosite_786 (phosphosite position: 786)
  phosphopeptide melting temperature shift [°C]: 1.14 ± 0.91
FAM122B phosphosite_115 (phosphosite position: 115) (UniProt Q7Z309)
  phosphopeptide melting temperature shift [°C]: 0.313 ± 2.1
